This is an account of results in paper PMC7755398.

Results are given in words; binding and its absence hold for the method and conditions named. Binding calls can cover weak binding; strength is not graded here. Tags and fused reporters may be left off the sequences shown.

In the assay the target is T1, PAR-6 PDZ domain fused to the Gal4 DNA binding domain (C. elegans) (UniProt Q9NAN2).
T1 sequence: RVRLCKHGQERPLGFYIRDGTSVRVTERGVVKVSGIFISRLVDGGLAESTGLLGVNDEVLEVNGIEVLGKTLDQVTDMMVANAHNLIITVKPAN
The assay is described as follows: two-hybrid; Gal4 system in diploid S. cerevisiae (Y8930 x Y8800); DB::PAR-6 PDZ as bait, AD::NOCA-1d as prey; growth on -Leu -Trp -His + 2 mM 3-AT and on -Leu -Trp -Ade plates; cycloheximide plate as test for self-activation.

Turning to “full-length NOCA-1d fused to the Gal4 activation domain (from UniProt G5EEK3-4)”, the binding entry is listed as “binds”.
